Paper PMC6361588, “Exploration of CTCF post-translation modifications uncovers Serine-224 phosphorylation by PLK1 at pericentric regions during the G2/M transition”
The exact form of at least one protein or probe is not confirmed. At least one verdict rests on a figure or table, not on a statement of the authors. Where a protein sequence is shown, tags need not be part of it.

Biological target: T1, FLAG-CTCF-6xHis wild type (UniProt Q61164)
T1 sequence (looked up, limits assumed): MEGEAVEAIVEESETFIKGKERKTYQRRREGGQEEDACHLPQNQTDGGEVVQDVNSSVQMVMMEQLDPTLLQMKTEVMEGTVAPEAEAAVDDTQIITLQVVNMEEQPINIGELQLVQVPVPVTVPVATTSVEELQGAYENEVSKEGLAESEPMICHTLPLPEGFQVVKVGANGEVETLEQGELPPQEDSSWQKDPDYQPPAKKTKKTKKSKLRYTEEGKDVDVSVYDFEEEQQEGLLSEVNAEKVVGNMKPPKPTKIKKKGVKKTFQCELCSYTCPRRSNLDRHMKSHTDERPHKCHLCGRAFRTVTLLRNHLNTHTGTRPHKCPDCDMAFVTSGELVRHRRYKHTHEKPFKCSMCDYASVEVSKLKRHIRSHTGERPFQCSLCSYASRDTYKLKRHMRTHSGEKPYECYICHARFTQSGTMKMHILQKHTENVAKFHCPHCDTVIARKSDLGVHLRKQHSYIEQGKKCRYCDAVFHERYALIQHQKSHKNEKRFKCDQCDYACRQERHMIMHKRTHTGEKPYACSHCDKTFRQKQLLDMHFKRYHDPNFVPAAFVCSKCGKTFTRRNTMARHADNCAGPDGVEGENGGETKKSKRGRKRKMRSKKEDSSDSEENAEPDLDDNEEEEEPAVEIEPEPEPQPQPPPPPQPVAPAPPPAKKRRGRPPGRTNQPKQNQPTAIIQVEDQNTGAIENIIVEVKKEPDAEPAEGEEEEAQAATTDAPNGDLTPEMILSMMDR
Experiment: EMSA
Conditions: 0.5, 1 or 2 pmol protein; EMSA as in Sun et al., 2013; recombinant protein; protein details: N-terminal FLAG, C-terminal 6xHis

“CTATGCATTAGGTTTGGGTGTTATACCCGTGTAGGCCAGCAGAGGGTGTCGGATCCCAAGGAAACCAAGTTACAGACGCC (double strand) [RS14C]”: binds.
